Reference: PubChem BioAssay AID1259405 (NCATS, 2018)

Test: 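Mouse-designed siRNAs used to find CHO productivity engineering targets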 (primary screen)
Cell system: Chinese hamster CHO-K1 ovary cells with stable secreted eGFP expression
Reagent: single siRNA against mouse genes, 0.8 pmol siRNA per well (2 µl of 400 nM stock)
Timing: 3 days
Measured: 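Per-well intracellular GFP measured by laser scanning cytometry, plus viability from ATP luminescence, each relative to plate median of non-targeting control wells, in %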
Scale: GFP, % of control: higher = more GFP per well, higher productivity; viability (ATP), % of control: higher = more viable cells (more ATP)
Active means: 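a knock-down is called active if GFP reaches 120% or more of non-targeting control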
The deposit covers about 50,000 reagents; this is an unselected part. About 4,000 of all reagents (8%) count as active. 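Mouse siRNA library applied to hamster cells; one well for each siRNA.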 The numbers tell different reagents against one gene apart.

Rbm25 (GeneID 67039) #1 gave GFP, % of control 43.6; viability (ATP), % of control 56.7; inactive.
Silencing of Rbm25 (GeneID 67039) #2 came out at: GFP, % of control 63.8; viability (ATP), % of control 66.3; inactive.
Rbm25 (GeneID 67039) #3 showed GFP, % of control 39.9; viability (ATP), % of control 49.2; inactive.
Serpinb9 (GeneID 20723) #1 scored GFP, % of control 73.4; viability (ATP), % of control 88.7; inactive.
Depletion of Serpinb9 (GeneID 20723) #2 came out at: GFP, % of control 49.4; viability (ATP), % of control 69.4; inactive.
Serpinb9 (GeneID 20723) #3 scored GFP, % of control 73.4; viability (ATP), % of control 93.9; inactive.
With knock-down of Cidec (GeneID 14311) #1, the screen gave GFP, % of control 105; viability (ATP), % of control 169; inactive.
Cidec (GeneID 14311) #2 scored GFP, % of control 40.7; viability (ATP), % of control 36.5; inactive.
Against 3110053B16Rik (GeneID 382686) #1 the deposit lists GFP, % of control 79.9; viability (ATP), % of control 71.8; inactive.
For 3110053B16Rik (GeneID 382686) #2, the values are GFP, % of control 77.8; viability (ATP), % of control 72.4; inactive.
Depletion of 3110053B16Rik (GeneID 382686) #3 came out at: GFP, % of control 118; viability (ATP), % of control 86.5; inactive.
After knock-down of Nid1 (GeneID 18073) #1, the record shows GFP, % of control 84.3; viability (ATP), % of control 109; inactive.
Nid1 (GeneID 18073) #2 gave GFP, % of control 86.1; viability (ATP), % of control 75.8; inactive.
Silencing of Pou2f3 (GeneID 18988) #1 came out at: GFP, % of control 107; viability (ATP), % of control 134; inactive.
Pou2f3 (GeneID 18988) #2 scored GFP, % of control 86.2; viability (ATP), % of control 90; inactive.
Against Pou2f3 (GeneID 18988) #3, the values are GFP, % of control 63.6; viability (ATP), % of control 73; inactive.
Or51b6b (GeneID 259126) #1 scored GFP, % of control 105; viability (ATP), % of control 76.8; inactive.
For Or51b6b (GeneID 259126) #2 the deposit lists GFP, % of control 80.7; viability (ATP), % of control 73.5; inactive.
Or51b6b (GeneID 259126) #3 gave GFP, % of control 54.6; viability (ATP), % of control 78.8; inactive.
Knock-down of Sntg2 (GeneID 268534) #1 gave: GFP, % of control 99.2; viability (ATP), % of control 94.7; inactive.
Silencing of Sntg2 (GeneID 268534) #2 gave: GFP, % of control 78.3; viability (ATP), % of control 56.1; inactive.
With knock-down of Cd3d (GeneID 12500) #1, the record shows GFP, % of control 101; viability (ATP), % of control 81.8; inactive.
After knock-down of Cd3d (GeneID 12500) #2, the screen gave GFP, % of control 67.6; viability (ATP), % of control 62.1; inactive.
After knock-down of Cd3d (GeneID 12500) #3, the screen gave GFP, % of control 83; viability (ATP), % of control 64.4; inactive.
Knock-down of Ric8b (GeneID 237422) #1 gave: GFP, % of control 97.5; viability (ATP), % of control 92.5; inactive.
For Ric8b (GeneID 237422) #2 the deposit lists GFP, % of control 15.7; viability (ATP), % of control 23.5; inactive.
Ric8b (GeneID 237422) #3 scored GFP, % of control 60.1; viability (ATP), % of control 82.2; inactive.

Targets above whose target name begins with N or n (2):
Nid1 (GeneID 18073) #1 — GFP, % of control = 84.3; viability (ATP), % of control = 109; outcome = inactive
Nid1 (GeneID 18073) #2 — GFP, % of control = 86.1; viability (ATP), % of control = 75.8; outcome = inactive
